Data as given in PMC2994726 (PLoS ONE, 2010).
Results are given in words; binding and its absence hold for the method and conditions named. In cells and extracts the contact can be indirect. Some results given as binding are weak or reduced against the parent protein; the word gives no strength.

Protein sequences, listed by entry. Tags and fused reporters are not part of them.
UniProt P25095: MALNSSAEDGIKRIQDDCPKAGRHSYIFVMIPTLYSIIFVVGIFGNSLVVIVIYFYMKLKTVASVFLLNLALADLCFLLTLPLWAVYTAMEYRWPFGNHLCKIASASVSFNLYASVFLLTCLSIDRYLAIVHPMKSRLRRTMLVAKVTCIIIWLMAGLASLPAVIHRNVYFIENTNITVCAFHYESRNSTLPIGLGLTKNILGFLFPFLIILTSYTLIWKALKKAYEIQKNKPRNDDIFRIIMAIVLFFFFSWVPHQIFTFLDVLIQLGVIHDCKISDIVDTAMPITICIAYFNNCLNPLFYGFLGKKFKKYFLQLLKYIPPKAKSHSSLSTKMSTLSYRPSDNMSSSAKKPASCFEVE

Biological target: Luc-tagged rat AT1a receptor (rAT1aR-Renilla Luc), WT, full length (rat) (UniProt P25095)
Experiment: FRET or BRET; BRET1 in live HEK293 cells co-transfected with Luc-tagged AT1R and YFP-β-arrestin2, with or without overexpressed Gαq; dose-response to Ang II

With “YFP-β-arrestin2 (from UniProt P32121 1-409)” the binding was “binds”.
